# This is one part of the list. The main result of the screen is listed elsewhere. These columns were measured beside it and carry no call. The list favours compounds with an active or inconclusive main result. The note in brackets gives the kind of curve behind each potency; many fits are weak.
# Assay: qHTS Assay for Lipid Storage Modulators in Drosophila S3 Cells;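 as to cell number change: cells counted by Cell Tracker Red CMTPX staining in the red channel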
# Settings: BODIPY lipid droplet fluorescence, 18-24 h; for cell number change: measured here: cell count max response, cells fed with added oleic acid
# How it was run: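 Drosophila S3 cells loaded with oleic acid (400 uM, as added) and compounds at several concentrations; lipid droplets imaged by 488-nm laser-scanning cytometry, 500–530 nm intensity and object ratio to cell channel. Percent activity normalized to 20 uM Triacsin C.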
# [1] = measured here: lipid fluorescence (Fed channel) AC50, cells fed with added oleic acid
# [2] = measured here: cell number channel AC50, cells fed with added oleic acid
Structure (SMILES),cell number change,AC50 [1],AC50 [2]
NS(=O)(=O)c1ccc(NS(=O)(=O)c2cccs2)cc1,-0.859%,"29.1 µM [falling, single point]",–
O=C(CN1C(=O)c2ccccc2S1(=O)=O)NC1CC2CCC1C2 (stereo not drawn),-15.7%,–,–
COc1ccc(C)c(NC(=O)NCCc2cnc[nH]2)c1,4.76%,–,–
N#Cc1c(SCC(N)=O)nc2c(c1-c1ccc(O)cc1)CCCC2,25%,"2.31 µM [rising, partial curve]","0.411 µM [rising, full curve, poor fit]"
O=c1cc(Nc2cccc(Br)c2)[nH]c(=O)[nH]1,6.73%,"4.11 µM [falling, partial curve, poor fit]",–
COCC(C)NC(=O)NC(=O)c1ccc(Cl)cc1 (stereo not drawn),22%,"2.59 µM [falling, single point]",–
Cc1ccc(-n2nnnc2CN2CCCCC2)cc1,-7.56%,"0.13 µM [falling, full curve, poor fit]",–
COc1cccc(NC(=S)NCCc2ccccn2)c1,-38.3%,–,–
O=C(NCCc1ccc(Cl)cc1)c1ccc(=O)[nH]c1,1.8%,"3.66 µM [rising, partial curve, poor fit]",–
Cc1ccc(S(=O)(=O)N(Cc2cccnc2)Cc2cc3ccccc3[nH]c2=O)cc1,21.1%,–,–
CN1CCN(C(=O)C2=C[C@H](c3csc4ccccc34)C[C@H](OCCCCO)O2)CC1,2.11%,"1.64 µM [rising, partial curve, poor fit]",–
COc1cc(C(=O)NCCC(=O)NC2CCCCCCC2)cc(OC)c1OC,-37.4%,"0.651 µM [falling, single point]","0.58 µM [falling, partial curve, poor fit]"
CCOc1ccc(/C=N/Nc2cc(N3CCOCC3)nc(C)n2)c(O)c1,0.824%,"23.1 µM [rising, single point]",–
Cc1ccc(/C=C2\CCC3=C2OC(N)=C(C#N)C3c2ccc(C)cc2)cc1 (stereo not drawn),-62.6%,–,"29.1 µM [falling, single point]"
CC(C)(C)c1ccc(C(=O)N2CCCC2c2cccs2)cc1 (stereo not drawn),-17.1%,"0.206 µM [rising, single point]",–
COc1ccc(C2=NOC(C(=O)Nc3cc(C)nn3-c3ccccc3)C2)cc1OC (stereo not drawn),2.63%,"9.2 µM [rising, partial curve]",–
CN(C)c1nc(NC(C)(C)C)nc(SCC(=O)Nc2ccccc2)n1,-31.3%,–,–
C=CCOc1ccccc1NC(=O)CN1C(=O)CNC1=O,14.8%,"6.51 µM [falling, single point]",–
CN(C(=O)CSc1nnc(-c2ccc3c(c2)OCO3)o1)C1CCS(=O)(=O)C1 (stereo not drawn),-6.98%,"0.231 µM [rising, full curve, poor fit]",–
CCOc1nc(C)ccc1-c1noc(-c2ccco2)n1,–,"6.51 µM [rising, single point]",–
CCOc1ccc(NC(=O)CC2C(=O)N(c3ccccc3)C(=O)N2Cc2ccccn2)cc1 (stereo not drawn),67%,"13 µM [rising, partial curve]","9.2 µM [rising, partial curve]"

Structure (SMILES),cell number change,AC50 [1],AC50 [2]
O=C(COc1ccccc1)NNC1=NS(=O)(=O)c2ccccc21,11.1%,"0.164 µM [falling, full curve]","1.16 µM [falling, partial curve]"
Cc1ccc(S(=O)(=O)N(C)c2ccc(C(=O)Nc3cccnc3)cc2)cc1,-6.93%,–,–
COc1ccc(C(=O)NC2CCN(C(=S)Nc3ccccc3)CC2)cc1,28%,"29.1 µM [rising, single point]",–
O=C(O)C1=C[C@@H](C2CC2)C[C@@H](OCc2ccc(CO)cc2)O1,-35.3%,"29.1 µM [falling, single point]",–
COc1cc(C2C(C#N)=C(N)Oc3cc(C)n(CCc4ccccc4)c(=O)c32)cc2c1OCO2 (stereo not drawn),–,"1.84 µM [rising, partial curve]",–
CC(C)C[C@H]1CN=C(N(C)C)N1CC1CCCCCC1,14.7%,"3.66 µM [rising, full curve, poor fit]",–
COc1cccc(/C=N/NC(=O)c2ccc([N+](=O)[O-])cc2Cl)c1O,-35.8%,"5.8 µM [falling, partial curve]","20.6 µM [falling, single point]"
Cc1cc(C)nc(SC2CCCCC2NS(=O)(=O)c2ccccc2)n1 (stereo not drawn),5.56%,"3.26 µM [rising, single point]",–
Cc1c(OC(C)C(=O)NCC2CCC(C(=O)O)CC2)ccc2c1oc(=O)c1ccccc12 (stereo not drawn),23%,"0.116 µM [rising, full curve, poor fit]",–
Cc1ccc(S(=O)(=O)Nc2ncnc3ccccc23)cc1,14.5%,–,–
Cc1cccc(CCNC(=O)CCNS(=O)(=O)c2cc(Br)cnc2N)c1,30.7%,"6.51 µM [rising, partial curve]","14.6 µM [rising, single point]"
Cc1ccc(CNc2c(C=O)c(=O)[nH]c3ccccc23)cc1,21.3%,–,–
CC(C)NC(=O)C1CCN(Cc2cccc(Oc3ccccc3)c2)CC1,32.4%,–,"23.1 µM [rising, partial curve, poor fit]"
O=C1NCCN1C(=O)c1ccccc1F,3.2%,"14.6 µM [falling, partial curve, poor fit]",–
CCCN(CC(=O)Nc1ccccc1OC)C(=O)c1cc(-c2ccccc2)nn1-c1ccccc1,13.7%,–,"6.51 µM [falling, partial curve, poor fit]"
Cc1nc2ccccn2c1/C(O)=C1\C(=O)C(=O)N(CCCn2ccnc2)C1c1ccncc1 (stereo not drawn),76.4%,"4.11 µM [falling, single point]",–
O=S(=O)(Nc1ccccc1N1CCCCC1)c1ccc(F)cc1F,–,"6.51 µM [rising, partial curve]","0.58 µM [rising, single point]"
O=C(Nc1ccc2c(c1)OCO2)Nc1ccc(F)cc1F,0.438%,"35.5 µM [rising, single point]",–
CS(=O)(=O)Cc1cc(N2CCCC2)nc(-c2ccccc2)n1,59.8%,–,"0.0058 µM [rising, full curve, poor fit]"
C=CCOc1nc(-c2ccncc2)nc2ccccc12,-34.5%,"20.6 µM [falling, single point]","9.2 µM [falling, partial curve]"
CC1CCCCN1C(=O)c1cnn2c(C(F)(F)F)cc(-c3ccco3)nc12 (stereo not drawn),74.9%,"6.51 µM [rising, full curve, poor fit]","7.31 µM [rising, partial curve]"

# Some entries already given, showing only AC50 [1]:
Structure (SMILES),AC50 [1]
Cc1nc2ccccn2c1/C(O)=C1\C(=O)C(=O)N(CCCn2ccnc2)C1c1ccncc1 (stereo not drawn),"4.11 µM [falling, single point]"
O=S(=O)(Nc1ccccc1N1CCCCC1)c1ccc(F)cc1F,"6.51 µM [rising, partial curve]"
O=C(Nc1ccc2c(c1)OCO2)Nc1ccc(F)cc1F,"35.5 µM [rising, single point]"

# Further compounds.

Structure (SMILES),cell number change,AC50 [1],AC50 [2]
COc1ccc(CNC(=O)COC(=O)c2cc(-c3ccc(Cl)s3)nc3ccccc23)cc1,-10.3%,"0.116 µM [rising, full curve, poor fit]",–
Cc1ccc(NC(=O)/C(=C\c2ccc([N+](=O)[O-])cc2)NC(=O)c2ccccc2)cc1,-17%,–,–
COc1ccc(C(=O)NC(=S)N2CCC(C)CC2)cc1,91.2%,"3.26 µM [rising, partial curve]","25.9 µM [rising, partial curve]"
CCOCc1cn(CC(=O)c2ccc(Cl)cc2)c(C)nc1=N,33.8%,–,"3.66 µM [rising, partial curve, poor fit]"
Cc1ccc(SCC(=O)NC(=O)NC(C)C)c(C)c1,-11.3%,–,–
Cc1ccc(-c2noc(CCC(=O)Nc3cccc(C#N)c3)n2)cc1,-17.7%,"0.146 µM [falling, single point]",–
CCCc1[nH]nc2c1C(c1ccc(OCCN3CCOCC3)c(OCC)c1)C(C#N)=C(N)O2 (stereo not drawn),13.5%,–,–
Cc1cc2c(cc1S(=O)(=O)Nc1cccc(C)c1C)OCC(=O)N2,4.03%,"6.51 µM [falling, single point]",–
O=[N+]([O-])c1cc(Cl)cc(C2=NCCN2)c1,7.49%,–,–
COc1ccc(NC(=O)C2(c3ccc(NC(=O)c4ccc(OC(C)=O)cc4)cc3)CCCC2)cc1,-23.4%,"0.259 µM [falling, full curve, poor fit]",–
CC(=O)Nc1ccc(-c2csc(Nc3cccc(C)n3)n2)cc1,-33.4%,"2.59 µM [falling, single point]","0.366 µM [falling, partial curve, poor fit]"
Cc1ccccc1C(=O)N1CCC(C(=O)NC(C)c2ccc(-n3ccnc3)cc2)CC1 (stereo not drawn),30.2%,"29.1 µM [rising, partial curve, poor fit]","18.4 µM [rising, partial curve, poor fit]"
C/C(=N\NC(=S)NC1CCCCC1)c1c(F)cccc1F,48%,–,"13 µM [rising, partial curve, poor fit]"
CCOc1ccc(/C=C/C(=O)c2c(O)cc(C)oc2=O)cc1,11.9%,"0.731 µM [falling, single point]",–
COc1ccccc1N1CCN(C(=O)c2cccc(N3C(=O)NC4CC3(C)Oc3c(OC)cccc34)c2)CC1 (stereo not drawn),-28%,–,–
Cc1ccc(NC(=O)CSCC(=O)N2CCCc3ccccc32)cc1,17%,–,–
COC(=O)c1cc(=O)nc2scc(C)n12,0.0128%,"0.517 µM [falling, full curve]",–
CC(C)c1nc(SCC(=O)Nc2ccc(N(C)C)cc2)c2ccccc2n1,-4.14%,"0.184 µM [rising, full curve]",–
CCn1c(Cc2ccccc2)nnc1SCC(=O)Nc1ccc(N)cc1,40.5%,"6.51 µM [rising, single point]","8.2 µM [rising, partial curve, poor fit]"

# — PubChem BioAssay AID2685 (National Center for Advancing Translational Sciences (NCATS), 2010)
